Reference: publication PMC9776393
Negatives hold for the conditions tested. For part of these data: At least one verdict rests on a figure or table, not on a statement of the authors.

Sequences of proteins named here, by UniProt entry; tags and fusion partners are left off. Residues count along the entry.
UniProt P07288, 25-261: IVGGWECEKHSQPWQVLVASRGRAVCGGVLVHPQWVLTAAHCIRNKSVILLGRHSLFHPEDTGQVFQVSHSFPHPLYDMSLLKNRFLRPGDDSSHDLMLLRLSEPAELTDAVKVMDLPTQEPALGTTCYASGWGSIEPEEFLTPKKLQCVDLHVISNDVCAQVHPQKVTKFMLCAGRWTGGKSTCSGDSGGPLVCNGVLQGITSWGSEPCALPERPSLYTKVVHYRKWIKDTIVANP
UniProt P02769, 25-607: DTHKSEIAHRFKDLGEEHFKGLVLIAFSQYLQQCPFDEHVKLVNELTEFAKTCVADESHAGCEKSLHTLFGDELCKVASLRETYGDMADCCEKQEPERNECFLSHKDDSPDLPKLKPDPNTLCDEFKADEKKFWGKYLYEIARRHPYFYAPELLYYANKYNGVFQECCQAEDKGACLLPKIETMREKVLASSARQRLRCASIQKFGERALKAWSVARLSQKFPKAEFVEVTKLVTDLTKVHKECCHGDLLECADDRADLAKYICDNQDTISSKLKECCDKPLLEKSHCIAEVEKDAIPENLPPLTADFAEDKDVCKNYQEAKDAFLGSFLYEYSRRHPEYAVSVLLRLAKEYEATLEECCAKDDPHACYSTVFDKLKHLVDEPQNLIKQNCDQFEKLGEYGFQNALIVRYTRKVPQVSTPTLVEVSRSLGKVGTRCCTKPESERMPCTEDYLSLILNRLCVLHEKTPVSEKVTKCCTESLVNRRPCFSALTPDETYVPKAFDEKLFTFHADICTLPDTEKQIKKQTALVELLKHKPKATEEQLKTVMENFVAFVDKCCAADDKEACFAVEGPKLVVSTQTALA

Key:
Experiment in all cases: electrochemical aptasensor (DPV)
[1] = target: prostate-specific antigen (PSA) (human (semen)) (UniProt P07288); conditions: control DNA probe, no significant current reduction; 5'-HS-(CH2)6 thiol; PBS pH 7.2, [Fe(CN)6]3-/4- redox probe, 5 min binding; aptamer heated to 95 C and cooled, immobilized at room temperature with MgCl2 and NaCl; commercial protein; single-stranded DNA
[2] = target: human serum albumin (HSA) (human) (UniProt P02768); conditions: MCH-blocked electrode, no significant current reduction; 5'-HS-(CH2)6 thiol; PBS pH 7.2, [Fe(CN)6]3-/4- redox probe, 5 min binding; aptamer heated to 95 C and cooled, immobilized at room temperature with MgCl2 and NaCl; commercial protein; single-stranded DNA
[3] = target: bovine serum albumin (BSA) (bovine) (UniProt P02769); conditions: MCH-blocked electrode, no significant current reduction; 5'-HS-(CH2)6 thiol; PBS pH 7.2, [Fe(CN)6]3-/4- redox probe, 5 min binding; aptamer heated to 95 C and cooled, immobilized at room temperature with MgCl2 and NaCl; single-stranded DNA

Sequence	binding result [1]	binding result [2]	binding result [3]
AAAAATTAATTTCGAGCGGTAGTTTATCGAAA [control DNA probe]	no binding	–	–
TTTTTAATTAAAGCTCGCCATCAAATAGCTTT [PSA aptamer]	–	no binding	no binding
